{"sequences": {"note": "Protein sequences, listed by entry. Tags and fused reporters are not part of them.", "UniProt P09471, whole entry, looked up": "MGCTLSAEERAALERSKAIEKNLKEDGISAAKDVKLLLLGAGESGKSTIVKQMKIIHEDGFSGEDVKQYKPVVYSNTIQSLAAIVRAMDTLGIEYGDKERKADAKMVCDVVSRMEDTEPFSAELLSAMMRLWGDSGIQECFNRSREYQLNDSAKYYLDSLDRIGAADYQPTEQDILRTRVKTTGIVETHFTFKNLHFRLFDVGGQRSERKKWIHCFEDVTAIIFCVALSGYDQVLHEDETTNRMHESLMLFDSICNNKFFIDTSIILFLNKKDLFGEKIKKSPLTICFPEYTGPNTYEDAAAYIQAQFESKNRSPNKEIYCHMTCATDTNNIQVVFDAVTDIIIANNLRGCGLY"}, "source": "PubChem BioAssay AID1439", "about": "(NMMLSC, 2008)", "note": "In all, about 220,000 compounds went through this assay and about 770 (0.35%) were called active. The shares of active, inactive and inconclusive entries below differ from those in the screen. No stated cut-off is given here; in the data, active means binding response below about 49% or above about 150%; inconclusive means no clear call, values can overlap the other calls; inactive means in between.", "data": [{"molecular_target": "Guanine nucleotide-binding protein G(o) subunit alpha (Homo sapiens) (UniProt P09471)", "test": "RGS7-Galphao binding modulators, primary screen, biochemical, multiplexed bead flow cytometry (AID 1439);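 further: fluorescent Galphao held in activated GDP-AlF4 state binding bead-coupled RGS7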", "conditions": "at 10 µM, actives lie on both sides", "values": [{"smiles": "CC(=O)c1cn(S(=O)(=O)c2ccccc2)c2ccccc12", "binding response (% of control)": "inactive: 102%"}, {"smiles": "CCn1nc(C)c(CNC(=O)Nc2ccc3c(c2)OCO3)c1C", "binding response (% of control)": "inactive: 92.4%"}, {"smiles": "Cc1ccc(Cl)cc1NC(=O)CCC(=O)O", "binding response (% of control)": "inconclusive: 484%"}, {"smiles": "CCCCN(CC)Cc1ccc(CNC(=O)Nc2ccc(OCC)cc2)o1", "binding response (% of control)": "inactive: 133%"}, {"smiles": "CC(C)CN1C=C2C(=O)C(C)(OC(=O)C3CCCC3)C(=O)C=C2C=C1c1ccsc1", "note": "(stereo not drawn)", "binding response (% of control)": "inconclusive: 88%"}, {"smiles": "Fc1ccccc1N1CC(c2ccccc2)C(c2cccs2)=N1", "note": "(stereo not drawn)", "binding response (% of control)": "active: 14.7%"}, {"smiles": "Fc1ccc(Nc2nc(Oc3ccccc3F)nc(N3CCCC3)n2)cc1", "binding response (% of control)": "inactive: 107%"}, {"smiles": "CCOC(=O)c1ccc(NC(=O)c2ccc(CN3CCOCC3)cc2)cc1", "binding response (% of control)": "inactive: 104%"}, {"smiles": "CCc1nc(SCc2cccnc2)[nH]c(=O)c1C", "binding response (% of control)": "inactive: 105%"}, {"smiles": "C=CCN(C(=O)c1cccc(C(F)(F)F)c1)C1(C(=O)Nc2ccccc2)CCN(C(C)C)CC1", "binding response (% of control)": "inconclusive: 104%"}, {"smiles": "O=C1NC(=Nc2ccccc2)S/C1=C\\c1cccs1", "binding response (% of control)": "inconclusive: 94.3%"}, {"smiles": "CCCOc1c(Cl)cc(C(=O)NC)cc1OC", "binding response (% of control)": "inconclusive: 115%"}, {"smiles": "N#C/C(=C/c1ccncc1)c1nc2ccccc2c(=O)[nH]1", "binding response (% of control)": "inconclusive: 105%"}, {"smiles": "OCC1(Cc2ccccc2)CCCN(Cc2c[nH]c3ccccc23)C1", "note": "(stereo not drawn)", "binding response (% of control)": "inactive: 106%"}, {"smiles": "Cc1ccc(C)c(OCC(=O)N/N=C/c2c(C)nn(-c3ccccc3)c2Cl)c1", "binding response (% of control)": "inactive: 109%"}, {"smiles": "CCO[C@@H]1OC(C(=O)N2CCN(Cc3ccc4c(c3)OCO4)CC2)=C[C@H](c2cn(C(C)=O)c3ccccc23)[C@H]1CCCO", "binding response (% of control)": "active: 167% [activator]"}, {"smiles": "COc1cccc(OC(=O)c2cc3ccccc3oc2=O)c1", "binding response (% of control)": "inactive: 92.2%"}, {"smiles": "Cc1cccc(NC(=O)CN2C(=O)N/C(=C/c3ccc(-c4cccc(C(=O)O)c4C)o3)C2=O)c1", "binding response (% of control)": "inconclusive: 112%"}, {"smiles": "COC(=O)C1=C(C)N(c2ccccc2)/C(=C/c2ccco2)C1=O", "binding response (% of control)": "inconclusive: 111%"}, {"smiles": "COc1ccc(C(=O)NNC(=O)OC(C)(C)C)cc1", "binding response (% of control)": "inconclusive: 47.9%"}, {"smiles": "COc1ccc(Cl)cc1C(=O)NCc1ccco1", "binding response (% of control)": "inconclusive: 96.8%"}, {"smiles": "CCc1nnc(NS(=O)(=O)c2ccc(NC(=S)NC(=O)c3ccncc3)cc2)s1", "binding response (% of control)": "inconclusive: 83.1%"}, {"smiles": "COC(=O)c1cccc2c1NC(=O)C2=O", "binding response (% of control)": "inconclusive: 112%"}, {"smiles": "COC(=O)c1sc(N2CCCCC2)c(C#N)c1N", "binding response (% of control)": "inconclusive: 103%"}, {"smiles": "COc1cc(/C=N/NC(=O)c2ccc(O)cc2)ccc1OCC(=O)N1CC(C)OC(C)C1", "note": "(stereo not drawn)", "binding response (% of control)": "inconclusive: 82.3%"}, {"smiles": "COc1ccc(NC(=O)C2=C(C)NC(=O)NC2c2ccccc2[N+](=O)[O-])cc1", "note": "(stereo not drawn)", "binding response (% of control)": "inconclusive: 153%"}, {"smiles": "O=C1CS/C(=N/N=C/c2cccs2)N1Cc1ccc(F)cc1", "binding response (% of control)": "inconclusive: 55.6%"}, {"smiles": "CCc1nc2ccccc2nc1N1CCN(S(=O)(=O)c2ccc(Cl)cc2)CC1", "binding response (% of control)": "inconclusive: 69.1%"}, {"smiles": "COc1cc(C2C(C#N)=C(SC)NC3=C2C(=O)CCC3)ccc1O", "note": "(stereo not drawn)", "binding response (% of control)": "inconclusive: 59.1%"}, {"smiles": "S=c1[nH]ccn1-c1cccc(Cl)c1Cl", "binding response (% of control)": "inconclusive: 113%"}, {"smiles": "COc1ccc(-c2cc(C(=O)NCc3cccs3)no2)cc1", "binding response (% of control)": "inconclusive: 96.3%"}, {"smiles": "COc1ccc(CC(=O)NNC(=O)c2ccc(NC(C)=O)cc2)cc1", "binding response (% of control)": "inconclusive: 136%"}, {"smiles": "CN1CCN(C(=O)c2ccc(-c3cccs3)s2)CC1", "binding response (% of control)": "inconclusive: 133%"}, {"smiles": "O=C(O)c1cccc(Cn2c(Cl)c(/C=N/NC(=O)c3ccccc3O)sc2=O)c1", "binding response (% of control)": "inconclusive: 96.7%"}, {"smiles": "CCCC(=O)Nc1ccc2oc(-c3ccc(OC)c(Br)c3)nc2c1", "binding response (% of control)": "inactive: 109%"}, {"smiles": "O=C(COc1ncnc2ccccc12)Nc1cc([N+](=O)[O-])ccc1F", "binding response (% of control)": "inconclusive: 6.21%"}, {"smiles": "Cc1cc(C)c2c(=O)cc(C(F)(F)F)oc2n1", "binding response (% of control)": "inactive: 111%"}, {"smiles": "CCC(=O)Nc1ccc(-n2nnnc2SCC(=O)NNC(=O)c2ccco2)cc1", "binding response (% of control)": "inconclusive: 113%"}, {"smiles": "COc1cc(CN2CCc3ccccc3C2)ccc1O", "binding response (% of control)": "inconclusive: 91.8%"}, {"smiles": "CC(C)(C)OC(=O)NCCc1nnc(SCc2cccc(Cl)c2)o1", "binding response (% of control)": "inconclusive: 76%"}, {"smiles": "COCCNC(=O)C(c1c[nH]c2ccccc12)N(C(=O)c1snc(C(N)=O)c1N)c1cccc(OC)c1", "note": "(stereo not drawn)", "binding response (% of control)": "inactive: 98.8%"}, {"smiles": "O=C(COC(=O)c1nc(Cl)ccc1Cl)Nc1ccccc1OC(F)F", "binding response (% of control)": "inconclusive: 116%"}, {"smiles": "CN(C)S(=O)(=O)c1cccc(NC(=O)CSc2nc3ccccc3[nH]2)c1", "binding response (% of control)": "inconclusive: 89.7%"}, {"smiles": "CCOC(=O)c1ccccc1OCc1cc(/C=N/NC(=O)c2cccnc2)ccc1OC", "binding response (% of control)": "inconclusive: 102%"}, {"smiles": "CC(NC(=O)CSc1n[nH]c(=O)[nH]c1=O)C1CC2CCC1C2", "note": "(stereo not drawn)", "binding response (% of control)": "inconclusive: -307%"}, {"smiles": "Clc1ccc(/C=C/c2nc(Cl)c(-c3ccc(Cl)cc3)c(Cl)n2)cc1", "binding response (% of control)": "inconclusive: 99.8%"}, {"smiles": "CCN(CC)S(=O)(=O)c1cccc(NC(=O)CSc2nnc(N)s2)c1", "binding response (% of control)": "inactive: 96.1%"}, {"smiles": "CC1(C(=O)NNC(=O)c2ccc(=O)oc2)CC1Br", "note": "(stereo not drawn)", "binding response (% of control)": "inconclusive: -91.8%"}, {"smiles": "CC1CN(S(=O)(=O)c2cccc(C(F)(F)F)c2)CC(C)O1", "note": "(stereo not drawn)", "binding response (% of control)": "inconclusive: 116%"}, {"smiles": "CCOC(=O)Cn1c(=N)n(CCOc2ccc(F)cc2)c2ccccc21", "binding response (% of control)": "inconclusive: 161%"}, {"smiles": "FC(F)(F)c1cccc(NC(=S)Nc2cccc(NC(=S)Nc3cccc(C(F)(F)F)c3)n2)c1", "binding response (% of control)": "inconclusive: 99.8%"}, {"smiles": "Cc1cccc(N/N=C(\\C=N\\N)C(=O)c2ccc(Br)cc2)c1", "binding response (% of control)": "inactive: 96.9%"}, {"smiles": "CCc1ccc(N2Cc3ccccc3C2)cc1", "binding response (% of control)": "inconclusive: 100%"}, {"smiles": "O=C(Nc1ccccc1)c1c2c(nc3ccccc13)CCCC2", "binding response (% of control)": "inconclusive: 101%"}, {"smiles": "Cc1cc(C)c2c(NC(=O)C3CC3)nn(C)c2n1", "binding response (% of control)": "inconclusive: 127%"}, {"smiles": "Cc1nnc(Sc2nc3c(c(=O)[nH]c(=O)n3C)n2Cc2ccccc2)s1", "binding response (% of control)": "inconclusive: 107%"}, {"smiles": "O=C1/C(=N\\S(=O)(=O)c2cccs2)C([n+]2ccc(CCCc3ccccc3)cc2)=C([O-])c2ccccc21", "binding response (% of control)": "inconclusive: 93.9%"}, {"smiles": "Clc1cccc(Cl)c1CO/N=C/c1cccs1", "binding response (% of control)": "inconclusive: 110%"}]}]}
